Measurements reported in PubChem BioAssay AID1259405 (NCATS, 2018).
Shown is an unselected part of about 50,000 deposited reagents. About 4,000 of all reagents (8%) count as active. 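Mouse siRNA library applied to hamster cells; one well for each siRNA.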

Screen: 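Knock-downs that lift recombinant protein yield in hamster ovary cells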 (primary screen)
System: Chinese hamster CHO-K1 ovary cells with stable secreted eGFP expression
Reagent: single siRNA against mouse genes, 0.8 pmol siRNA per well (2 µl of 400 nM stock)
Duration: 3 days
Read-out: 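Percent of the per-plate non-targeting control median for intracellular GFP per well by laser scanning cytometry and for cell viability by ATP luminescence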
Scale: GFP, % of control: higher = more GFP per well, higher productivity; viability (ATP), % of control: higher = more viable cells (more ATP)
Active means: 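a knock-down is called active if GFP reaches 120% or more of non-targeting control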

no.	gene symbol	PubChem SID	GFP, % of control	viability (ATP), % of control	activity call
1	Stxbp3 (GeneID 20912)	SID363553537	65.6	52.7	inactive
2	Stxbp3 (GeneID 20912)	SID363561494	76.9	72.9	inactive
3	Stxbp3 (GeneID 20912)	SID363565232	52.3	61.3	inactive
4	Rras (GeneID 20130)	SID363570341	98.5	62.5	inactive
5	Rras (GeneID 20130)	SID363576677	100	86.1	inactive
6	Rras (GeneID 20130)	SID363579845	82.5	80.7	inactive
7	Gm6288 (GeneID 622129)	SID363540472	54	69.9	inactive
8	Gm6288 (GeneID 622129)	SID363542224	53.3	64	inactive
9	Gm6288 (GeneID 622129)	SID363567140	163	72.7	active
10	Elmod2 (GeneID 244548)	SID363541437	61.5	49.7	inactive
11	Elmod2 (GeneID 244548)	SID363556064	60.8	61.2	inactive
12	Elmod2 (GeneID 244548)	SID363566353	87.6	85	inactive
13	Astl (GeneID 215095)	SID363547281	105	72.1	inactive
14	Astl (GeneID 215095)	SID363558050	69.6	65.4	inactive
15	Astl (GeneID 215095)	SID363559808	72.1	87.6	inactive
16	Dido1 (GeneID 23856)	SID363539786	72.8	89.7	inactive
17	Dido1 (GeneID 23856)	SID363561087	44.1	52.2	inactive
18	Dido1 (GeneID 23856)	SID363565177	93.3	84.9	inactive
19	Ypel4 (GeneID 241525)	SID363556783	33	49.5	inactive
20	Ypel4 (GeneID 241525)	SID363563687	46.2	59.3	inactive
21	Ypel4 (GeneID 241525)	SID363587233	67.3	79.3	inactive
22	Rasgef1c (GeneID 74563)	SID363546030	139	153	active
23	Rasgef1c (GeneID 74563)	SID363549543	109	108	inactive
24	Rasgef1c (GeneID 74563)	SID363563349	68.4	78.1	inactive
25	Rassf7 (GeneID 66985)	SID363543868	193	91.3	active
26	Rassf7 (GeneID 66985)	SID363551604	50.7	47.5	inactive
27	Rassf7 (GeneID 66985)	SID363559209	93	82.7	inactive
28	Egf (GeneID 13645)	SID363572284	67.6	89	inactive
29	Egf (GeneID 13645)	SID363574044	79.8	75	inactive
30	Mgst3 (GeneID 66447)	SID363570567	119	81.6	inactive
31	Mgst3 (GeneID 66447)	SID363579367	36	44.7	inactive
32	Mgst3 (GeneID 66447)	SID363583239	99.5	103	inactive
33	Dazap2 (GeneID 23994)	SID363539625	90.9	108	inactive
34	Dazap2 (GeneID 23994)	SID363560926	79.9	71.9	inactive
35	Dazap2 (GeneID 23994)	SID363565016	109	82.9	inactive
36	Zp1 (GeneID 22786)	SID363553665	74	74.8	inactive
37	Zp1 (GeneID 22786)	SID363561622	77.1	81.3	inactive
38	Zp1 (GeneID 22786)	SID363565360	109	81.4	inactive
39	Thbs3 (GeneID 21827)	SID363582485	153	131	active
40	Thbs3 (GeneID 21827)	SID363584245	73.6	73.3	inactive
41	Cxcr5 (GeneID 12145)	SID363571152	62	73.4	inactive
42	Cxcr5 (GeneID 12145)	SID363571504	70.8	51.4	inactive
43	Cxcr5 (GeneID 12145)	SID363571856	149	88.1	active
44	Hvcn1 (GeneID 74096)	SID363540605	79.6	101	inactive
45	Hvcn1 (GeneID 74096)	SID363543056	67.8	58.7	inactive
46	Hvcn1 (GeneID 74096)	SID363552549	90.7	90	inactive
47	Rffl (GeneID 67338)	SID363541723	126	80.8	active
48	Rffl (GeneID 67338)	SID363553315	77.7	102	inactive
49	Rffl (GeneID 67338)	SID363566639	34.2	51.6	inactive
50	Marchf6 (GeneID 223455)	SID363572782	104	115	inactive
51	Marchf6 (GeneID 223455)	SID363578062	79.6	78.8	inactive
52	Marchf6 (GeneID 223455)	SID363582286	130	104	active
53	Or52a33 (GeneID 259087)	SID363544803	96.3	51.6	inactive
54	Or52a33 (GeneID 259087)	SID363551131	69.1	89.5	inactive
55	Or52a33 (GeneID 259087)	SID363557680	56	91.4	inactive
56	Fcgr4 (GeneID 246256)	SID363568905	125	104	active
57	Fcgr4 (GeneID 246256)	SID363576297	45.2	50.4	inactive
58	Fcgr4 (GeneID 246256)	SID363579113	41.9	55.7	inactive
59	Atp23 (GeneID 68876)	SID363569135	91.1	98.9	inactive
60	Atp23 (GeneID 68876)	SID363583567	118	90.2	inactive
61	Akap7 (GeneID 432442)	SID363546568	95.3	86.8	inactive
62	Akap7 (GeneID 432442)	SID363548324	106	77.8	inactive
63	Akap7 (GeneID 432442)	SID363560502	65.6	91.6	inactive
64	Kcnab3 (GeneID 16499)	SID363574590	62.7	41.6	inactive
65	Kcnab3 (GeneID 16499)	SID363575646	59	40.3	inactive
66	Kcnab3 (GeneID 16499)	SID363580222	93.1	87.2	inactive
67	Nrtn (GeneID 18188)	SID363541771	94.3	70.1	inactive
68	Nrtn (GeneID 18188)	SID363553363	67.6	71.8	inactive
69	Nrtn (GeneID 18188)	SID363566687	64.9	78.7	inactive
70	Cuedc1 (GeneID 103841)	SID363550191	90.7	108	inactive
71	Cuedc1 (GeneID 103841)	SID363564700	115	78.5	inactive
72	Cuedc1 (GeneID 103841)	SID363588245	97.1	112	inactive
73	Scamp3 (GeneID 24045)	SID363545743	77.6	47.5	inactive
74	Scamp3 (GeneID 24045)	SID363549256	62.3	61.1	inactive
75	Scamp3 (GeneID 24045)	SID363563062	73.4	65.2	inactive
76	Itih4 (GeneID 16427)	SID363573003	76.5	86.6	inactive
77	Itih4 (GeneID 16427)	SID363577579	38.7	30.1	inactive
78	Itih4 (GeneID 16427)	SID363581099	69.8	70.1	inactive
79	Ptp4a2 (GeneID 19244)	SID363575017	87.2	92.8	inactive
80	Ptp4a2 (GeneID 19244)	SID363580649	113	55	inactive
81	Ptp4a2 (GeneID 19244)	SID363582761	71.6	79	inactive
82	Lims2 (GeneID 225341)	SID363572330	83.8	123	inactive
83	Lims2 (GeneID 225341)	SID363574090	39.6	43.5	inactive
84	Gcg (GeneID 14526)	SID363541303	46.5	41.2	inactive
85	Gcg (GeneID 14526)	SID363555930	93.2	71.6	inactive
86	Gcg (GeneID 14526)	SID363566219	143	49.1	active
87	Acot4 (GeneID 171282)	SID363581889	84.6	81	inactive
88	Acot4 (GeneID 171282)	SID363589383	83.3	69.7	inactive
89	Fyttd1 (GeneID 69823)	SID363542538	47.5	54.7	inactive
90	Fyttd1 (GeneID 69823)	SID363552029	110	96.8	inactive
91	Fyttd1 (GeneID 69823)	SID363559634	109	100	inactive
92	Pate6 (GeneID 68171)	SID363539772	76.4	101	inactive
93	Pate6 (GeneID 68171)	SID363561073	45.9	76	inactive
94	Pate6 (GeneID 68171)	SID363565163	76.3	79.6	inactive
95	Slc26a10 (GeneID 216441)	SID363550075	102	87.1	inactive
96	Slc26a10 (GeneID 216441)	SID363564584	223	73.5	active
97	Slc26a10 (GeneID 216441)	SID363588129	89.2	91.9	inactive
98	Slc26a10 (GeneID 216441)	SID363589636	136	85.6	active
99	Slc26a10 (GeneID 216441)	SID363589637	115	98.1	inactive
100	Slc26a10 (GeneID 216441)	SID363589638	72.7	94.1	inactive
101	Prol1 (GeneID 17830)	SID363562373	97	81.1	inactive
102	Prol1 (GeneID 17830)	SID363567511	71.3	72.4	inactive
103	Prol1 (GeneID 17830)	SID363584868	91.5	54.2	inactive
104	Ocln (GeneID 18260)	SID363572701	66.4	68.9	inactive
105	Ocln (GeneID 18260)	SID363577981	89	71.4	inactive
106	Ocln (GeneID 18260)	SID363582205	112	137	inactive
107	Prrg2 (GeneID 65116)	SID363555041	65	57.6	inactive
108	Prrg2 (GeneID 65116)	SID363568488	61.4	80.8	inactive
109	Prrg2 (GeneID 65116)	SID363586547	45.4	63.2	inactive

Only “GFP, % of control” (9 entries from above):
Akap7 (GeneID 432442) [SID363548324]: 106
Akap7 (GeneID 432442) [SID363560502]: 65.6
Kcnab3 (GeneID 16499) [SID363574590]: 62.7
Kcnab3 (GeneID 16499) [SID363575646]: 59
Kcnab3 (GeneID 16499) [SID363580222]: 93.1
Nrtn (GeneID 18188) [SID363541771]: 94.3
Nrtn (GeneID 18188) [SID363553363]: 67.6
Nrtn (GeneID 18188) [SID363566687]: 64.9
Cuedc1 (GeneID 103841) [SID363550191]: 90.7
